Measurements as given in US20060276394A1, “METHODS AND COMPOSITIONS FOR TREATING NEUROLOGICAL DISORDERS” (WYETH, priority 2002, published 2006).
For part of these data: For at least one compound, name, drawing or mass did not settle the structure. Some of these results come from one statement about several compounds together.

Tests used:
[1] = system: IGFBP-2 mRNA; assay: transcriptional profiling of amygdala of drug-treated rats; type: in vivo; details: rat amygdala
Description: In the short-term 3 day treatment, it is possible that the drugs might exert their antidepressant effects through decreasing IGFBP-2 expression, which would increase bioavailability of IGF-I. The long-term treatment is of equivalent magnitude but in the opposite direction. This may represent a compensatory mechanism in response to the short-term drug effects.

[2] = system: IGF-IA; assay: two dimensional gel electrophoresis of hippocampal cytosolic extracts of chronic antidepressant-treated rats; type: in vivo; details: chronic treatment, rat hippocampal cytosolic extracts

Structure (SMILES)	expression of IGFBP-2 mRNA compared to vehicle alone ([1]; 3 day treatment)	expression of IGFBP-2 mRNA compared to vehicle alone ([1]; 14 day treatment)	integrated intensity of protein spots shared by both treatments (incl. IGF-IA) versus control, factor [2]
CNC1=Nc2ccc(Cl)cc2C(c2ccccc2)=[N+]([O-])C1 [Chlordiazepoxide]	decreased expression	increased expression	
COc1ccc(C(CN(C)C)C2(O)CCCCC2)cc1 (stereo not drawn) [venlafaxine]			≥ 1.5
